Values quoted from earlier work as cited in PMC4210246 (PLoS ONE, 2014).

How the values were obtained:
[1] = molecular target: β2-α1/γ2L-β2-α1 receptors; settings: read-out: GABA EC50; data reproduced; cited from earlier work
[2] = molecular target: β2-α1M236W/γ2L-β2-α1M236W receptors; settings: read-out: GABA EC50; data reproduced; cited from earlier work

NCCCC(=O)O [GABA, γ-Aminobutyric Acid]
EC50 [1]: 36 µM | EC50 [2]: 1 µM
